Test results: patent publication US12083202B2, “Lipophilic cosmetic compositions containing pelargonic acid esters” (Novamont S.p.A., priority 2015, dated 2024)
The amount applied is not stated for every result.

Test: Sensory evaluation of the pigment dispersions on the forearm
Format: in vivo
Settings: Black Iron Oxide dispersion on the forearm, scale from 1 (low) to 5 (high)

Row | Structure (SMILES) | Film evennes | Writing capability/color intensity
1 | CCCCCCCCC(=O)OCC(C)(C)COC(=O)CCCCCCCC [Neopentyl glycol dipelargonate] | 4 | 3
2 | CC(C)CCCCCCOC(=O)CCCCCC(C)C [Isononyl Isononanoate, reference compound] | 2 | 2
3 | CCCCCCCCC(=O)OCC(COC(=O)CCCCCCCC)OC(=O)CCCCCCCC [Glycerol tripelargonate] | 4 | 4
4 | CCCCCCCCC(=O)OCC(COC(=O)CCCCCCCC)(COC(=O)CCCCCCCC)COC(=O)CCCCCCCC [Pentaerythritol tetrapelargonate] | 4 | 4
